This is an account of results in PMC6322289.

This assay concerns the target chitinase (Hevea brasiliensis (endogenous in latex of clone CATAS7-33-97)). Description: SEC; clarified B-serum on Sephacryl S-200HR (70 x 2.6 cm), eluted with 50 mM Tris-HCl + 25 mM NaCl, pH 7.2; peaks read by Tricine-SDS-PAGE and western blotting; control elution at pH 5.5. (In general: In gel filtration, larger molecules generally elute earlier.)

No constants are given. Whether binding was seen depends on the method and setting. Binding can be weak; no strength is given.

B1: pro-hevein (protein, UniProt P02877 18-204)
chain: EQCGRQAGGKLCPNNLCCSQWGWCGSTDEYCSPDHNCQSNCKDSGEGVGGGSASNVLATYHLYNSQDHGWDLNAASAYCSTWDANKPYSWRSKYGWTAFCGPVGAHGQSSCGKCLSVTNTGTGAKTTVRIVDQCSNGGLDLDVNVFRQLDTDGKGYERGHITVNYQFVDCGDSFNPLFSVMKSSVIN
Regarding B1, the binding entry was “binds”.
